PMC8543820
Where two headings read alike, the source gives them in different places. Results are given in words; binding and its absence hold for the method and conditions named. In cells and extracts the contact can be indirect. Here binding means that the protein was enriched with, or labelled near, the bait; the list need not be complete.

Protein sequences, listed by entry. Tags and fused reporters are not part of them. Lines headed by an entry give the natural chain unless they say otherwise; changes in a name come on top.
UniProt P04198: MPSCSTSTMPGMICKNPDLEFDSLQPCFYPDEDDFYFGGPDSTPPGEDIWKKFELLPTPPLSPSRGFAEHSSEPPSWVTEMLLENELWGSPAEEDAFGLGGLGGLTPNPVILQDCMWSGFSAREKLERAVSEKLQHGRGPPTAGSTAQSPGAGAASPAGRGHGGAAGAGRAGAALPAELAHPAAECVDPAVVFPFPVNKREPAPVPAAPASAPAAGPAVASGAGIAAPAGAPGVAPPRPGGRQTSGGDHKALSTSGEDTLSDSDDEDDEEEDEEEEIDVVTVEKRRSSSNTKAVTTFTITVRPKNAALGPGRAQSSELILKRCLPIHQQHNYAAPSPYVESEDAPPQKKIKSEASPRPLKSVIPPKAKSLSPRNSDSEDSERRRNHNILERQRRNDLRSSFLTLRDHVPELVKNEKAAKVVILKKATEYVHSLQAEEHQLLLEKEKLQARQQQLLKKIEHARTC
UniProt P10155: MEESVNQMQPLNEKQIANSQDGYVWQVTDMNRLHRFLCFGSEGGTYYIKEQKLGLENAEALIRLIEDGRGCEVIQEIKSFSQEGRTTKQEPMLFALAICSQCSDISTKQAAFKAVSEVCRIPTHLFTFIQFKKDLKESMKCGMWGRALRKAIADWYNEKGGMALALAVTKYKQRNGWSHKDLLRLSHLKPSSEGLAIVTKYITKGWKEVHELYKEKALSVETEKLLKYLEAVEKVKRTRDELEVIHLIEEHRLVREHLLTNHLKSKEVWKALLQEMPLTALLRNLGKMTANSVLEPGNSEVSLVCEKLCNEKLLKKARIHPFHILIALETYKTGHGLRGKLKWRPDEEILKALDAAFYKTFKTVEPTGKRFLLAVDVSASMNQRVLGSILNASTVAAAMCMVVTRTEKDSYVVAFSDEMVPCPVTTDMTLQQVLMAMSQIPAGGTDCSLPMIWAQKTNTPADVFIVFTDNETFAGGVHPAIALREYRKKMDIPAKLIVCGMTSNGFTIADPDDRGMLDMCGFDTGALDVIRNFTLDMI
UniProt Q96EZ8: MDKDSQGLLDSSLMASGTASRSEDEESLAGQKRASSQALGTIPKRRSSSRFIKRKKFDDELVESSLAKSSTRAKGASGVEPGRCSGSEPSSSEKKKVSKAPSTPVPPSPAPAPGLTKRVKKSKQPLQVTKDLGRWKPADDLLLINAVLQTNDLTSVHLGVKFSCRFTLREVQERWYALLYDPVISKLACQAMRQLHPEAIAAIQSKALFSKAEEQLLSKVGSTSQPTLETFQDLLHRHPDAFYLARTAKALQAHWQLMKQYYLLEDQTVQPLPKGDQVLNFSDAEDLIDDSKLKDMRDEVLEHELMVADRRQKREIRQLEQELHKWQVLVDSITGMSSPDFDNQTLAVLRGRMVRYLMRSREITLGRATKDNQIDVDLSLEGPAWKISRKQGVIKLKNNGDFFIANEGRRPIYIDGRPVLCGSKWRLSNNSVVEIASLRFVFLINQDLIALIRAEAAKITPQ
UniProt O14641: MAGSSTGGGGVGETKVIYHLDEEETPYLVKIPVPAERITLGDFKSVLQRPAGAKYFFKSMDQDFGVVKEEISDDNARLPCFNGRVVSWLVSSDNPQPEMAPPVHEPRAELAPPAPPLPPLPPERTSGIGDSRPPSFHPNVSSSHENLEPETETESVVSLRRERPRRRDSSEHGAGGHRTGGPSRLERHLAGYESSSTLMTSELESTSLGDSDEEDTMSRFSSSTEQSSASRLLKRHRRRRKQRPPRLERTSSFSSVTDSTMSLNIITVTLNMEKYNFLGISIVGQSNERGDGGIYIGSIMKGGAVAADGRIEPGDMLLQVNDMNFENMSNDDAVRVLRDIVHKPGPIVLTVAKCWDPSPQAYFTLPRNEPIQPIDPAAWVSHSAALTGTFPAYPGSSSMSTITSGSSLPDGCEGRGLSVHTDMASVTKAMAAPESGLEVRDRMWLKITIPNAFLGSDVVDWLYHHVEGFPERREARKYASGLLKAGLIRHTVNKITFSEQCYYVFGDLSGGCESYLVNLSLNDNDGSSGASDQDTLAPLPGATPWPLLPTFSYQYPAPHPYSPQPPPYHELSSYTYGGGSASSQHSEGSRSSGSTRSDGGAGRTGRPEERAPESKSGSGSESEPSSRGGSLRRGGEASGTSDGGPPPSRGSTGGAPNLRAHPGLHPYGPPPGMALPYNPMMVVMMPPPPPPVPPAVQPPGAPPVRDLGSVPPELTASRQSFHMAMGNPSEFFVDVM
UniProt P61244: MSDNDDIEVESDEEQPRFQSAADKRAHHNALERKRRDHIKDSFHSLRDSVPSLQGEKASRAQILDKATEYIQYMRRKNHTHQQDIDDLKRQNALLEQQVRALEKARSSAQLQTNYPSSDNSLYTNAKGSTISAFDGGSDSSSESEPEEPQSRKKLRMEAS
UniProt Q969H0: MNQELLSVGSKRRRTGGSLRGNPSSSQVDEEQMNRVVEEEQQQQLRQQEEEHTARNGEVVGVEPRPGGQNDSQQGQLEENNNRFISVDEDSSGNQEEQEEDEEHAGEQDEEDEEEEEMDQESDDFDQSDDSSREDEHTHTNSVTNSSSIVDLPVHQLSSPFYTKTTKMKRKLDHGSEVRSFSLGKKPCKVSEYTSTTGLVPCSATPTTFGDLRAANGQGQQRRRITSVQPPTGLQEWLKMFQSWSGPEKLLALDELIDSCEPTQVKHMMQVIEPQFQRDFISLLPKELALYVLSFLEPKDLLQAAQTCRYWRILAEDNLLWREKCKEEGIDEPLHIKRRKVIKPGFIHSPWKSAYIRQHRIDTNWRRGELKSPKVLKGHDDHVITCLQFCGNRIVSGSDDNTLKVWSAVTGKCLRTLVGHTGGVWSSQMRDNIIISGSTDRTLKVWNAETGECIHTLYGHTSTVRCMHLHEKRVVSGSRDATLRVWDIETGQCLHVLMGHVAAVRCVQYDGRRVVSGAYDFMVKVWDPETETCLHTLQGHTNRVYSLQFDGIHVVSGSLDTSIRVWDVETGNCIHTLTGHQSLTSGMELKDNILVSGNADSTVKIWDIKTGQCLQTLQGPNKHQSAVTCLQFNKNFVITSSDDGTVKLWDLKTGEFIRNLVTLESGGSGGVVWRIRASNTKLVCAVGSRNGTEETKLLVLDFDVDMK
UniProt Q04724: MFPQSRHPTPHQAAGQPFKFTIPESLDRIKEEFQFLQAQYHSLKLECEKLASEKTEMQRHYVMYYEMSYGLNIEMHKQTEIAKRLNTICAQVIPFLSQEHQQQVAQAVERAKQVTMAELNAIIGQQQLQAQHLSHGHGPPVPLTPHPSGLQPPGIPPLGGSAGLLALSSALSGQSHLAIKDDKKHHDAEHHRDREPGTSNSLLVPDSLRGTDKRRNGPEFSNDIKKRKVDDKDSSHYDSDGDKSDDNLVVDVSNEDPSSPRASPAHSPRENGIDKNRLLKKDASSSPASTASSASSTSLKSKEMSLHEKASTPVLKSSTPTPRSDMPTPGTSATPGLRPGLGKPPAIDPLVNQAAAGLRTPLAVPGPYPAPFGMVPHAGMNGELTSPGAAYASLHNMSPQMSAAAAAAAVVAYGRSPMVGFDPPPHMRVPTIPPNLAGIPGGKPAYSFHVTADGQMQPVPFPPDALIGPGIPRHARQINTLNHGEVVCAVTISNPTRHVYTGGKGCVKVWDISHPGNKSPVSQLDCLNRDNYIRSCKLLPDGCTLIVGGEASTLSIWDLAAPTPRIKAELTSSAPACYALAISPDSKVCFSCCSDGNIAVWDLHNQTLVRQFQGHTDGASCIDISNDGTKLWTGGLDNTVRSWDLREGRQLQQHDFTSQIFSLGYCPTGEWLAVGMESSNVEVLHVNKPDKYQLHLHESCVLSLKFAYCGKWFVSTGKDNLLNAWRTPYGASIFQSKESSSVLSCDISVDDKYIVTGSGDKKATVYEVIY
UniProt P51784: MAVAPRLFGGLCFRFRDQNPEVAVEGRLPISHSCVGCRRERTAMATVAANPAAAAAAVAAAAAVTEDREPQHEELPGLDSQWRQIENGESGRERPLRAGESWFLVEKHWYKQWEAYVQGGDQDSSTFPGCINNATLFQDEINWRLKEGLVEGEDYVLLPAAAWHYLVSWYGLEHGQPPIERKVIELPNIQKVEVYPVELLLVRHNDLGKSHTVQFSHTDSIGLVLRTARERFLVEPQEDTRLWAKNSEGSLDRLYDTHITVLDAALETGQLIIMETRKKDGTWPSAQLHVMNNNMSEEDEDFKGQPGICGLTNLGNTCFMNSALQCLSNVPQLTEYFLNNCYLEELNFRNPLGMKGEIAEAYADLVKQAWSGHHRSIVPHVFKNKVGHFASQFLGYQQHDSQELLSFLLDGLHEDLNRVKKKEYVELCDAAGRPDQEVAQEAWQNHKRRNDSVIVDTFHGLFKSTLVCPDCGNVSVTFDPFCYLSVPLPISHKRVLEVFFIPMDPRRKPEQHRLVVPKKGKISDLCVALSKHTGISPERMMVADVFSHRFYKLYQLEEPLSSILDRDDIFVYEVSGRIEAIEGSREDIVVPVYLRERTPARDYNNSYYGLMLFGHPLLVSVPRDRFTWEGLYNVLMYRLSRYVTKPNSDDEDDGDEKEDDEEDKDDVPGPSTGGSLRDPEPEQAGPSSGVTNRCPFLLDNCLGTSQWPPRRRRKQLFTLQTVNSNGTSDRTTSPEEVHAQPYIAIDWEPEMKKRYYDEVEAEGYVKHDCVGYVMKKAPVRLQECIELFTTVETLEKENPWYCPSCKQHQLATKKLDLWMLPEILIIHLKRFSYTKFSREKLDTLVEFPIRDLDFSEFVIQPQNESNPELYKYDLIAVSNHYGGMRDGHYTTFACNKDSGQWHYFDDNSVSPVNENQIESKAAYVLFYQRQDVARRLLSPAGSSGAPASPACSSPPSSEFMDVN

Legend:
Assay in all cases: affinity purification with mass spectrometry; HA-N-MYC complexes from 200 million stably transfected, doxycycline-induced HEK293 cells on HA-coupled magnetic beads, benzonase; label-free quantification against untransfected control cells; two biological replicates each for wild-type and P44L
[1] = molecular target: HA-N-MYC (wild-type) (human) (UniProt P04198)
HA-N-MYC-P44L (human) [2] = molecular target: HA-N-MYC-P44L (human) (UniProt P04198)
[3] = molecular target: HA-N-MYC (wild-type) (human) (UniProt P04198); remark: listed apart in the source
HA-N-MYC-P44L (human) [4] = molecular target: HA-N-MYC-P44L (human) (UniProt P04198); remark: listed apart in the source

EP400 (endogenous) (from UniProt Q96L91 1-3159)
binding [1]: binds
binding (HA-N-MYC-P44L (human) [2]): binds

TROVE2 (endogenous) (from UniProt P10155 1-538)
binding [1]: binds
binding (HA-N-MYC-P44L (human) [2]): binds

MCRS1 (endogenous) (from UniProt Q96EZ8 1-462)
binding [1]: binds
binding (HA-N-MYC-P44L (human) [2]): binds

DVL2 (endogenous) (from UniProt O14641 1-736)
binding [1]: binds
binding (HA-N-MYC-P44L (human) [2]): binds

MAX (endogenous) (from UniProt P61244 1-160)
binding [1]: binds
binding (HA-N-MYC-P44L (human) [2]): binds

TRRAP (endogenous) (from UniProt Q9Y4A5 1-3859)
binding [1]: binds
binding (HA-N-MYC-P44L (human) [2]): binds

FBXW7 (endogenous) (from UniProt Q969H0 1-707)
binding [1]: binds
binding (HA-N-MYC-P44L (human) [2]): binds

TLE1 (endogenous) (from UniProt Q04724 1-770)
binding [1]: binds
binding (HA-N-MYC-P44L (human) [2]): binds

USP11 (endogenous) (from UniProt P51784 1-963)
binding [1]: binds
binding (HA-N-MYC-P44L (human) [2]): binds

B1: CBLL1 (endogenous) (protein, UniProt Q75N03 1-491)
chain: MDHTDNELQGTNSSGSLGGLDVRRRIPIKLISKQANKAKPAPRTQRTINRMPAKAPPGDEEGFDYNEEERYDCKGGELFANQRRFPGHLFWDFQINILGEKDDTPVHFCDKCGLPIKIYGRMIPCKHVFCYDCAILHEKKGDKMCPGCSDPVQRIEQCTRGSLFMCSIVQGCKRTYLSQRDLQAHINHRHMRAGKPVTRASLENVHPPIAPPPTEIPERFIMPPDKHHMSHIPPKQHIMMPPPPLQHVPHEHYNQPHEDIRAPPAELSMAPPPPRSVSQETFRISTRKHSNLITVPIQDDSNSGAREPPPPAPAPAHHHPEYQGQPVVSHPHHIMPPQQHYAPPPPPPPPISHPMPHPPQAAGTPHLVYSQAPPPPMTSAPPPITPPPGHIIAQMPPYMNHPPPGPPPPQHGGPPVTAPPPHHYNPNSLPQFTEDQGTLSPPFTQPGGMSPGIWPAPRGPPPPPRLQGPPSQTPLPGPHHPDQTRYRPYYQ
binding [3]: binds
binding (HA-N-MYC-P44L (human) [4]): binds
